From PubChem BioAssay AID504467 (National Center for Advancing Translational Sciences (NCATS), 2011)
Screen size: about 330,000 compounds; about 7,700 (2.3%) were called active. Inconclusive means that the source gave no clear call. Such entries were picked first, then a sample of the others. The call rests on the fitted dose curve; in most records, active means well fitted inhibition curve with a large enough effect; inconclusive means small, poorly fitted or top-dose-only effect, or effect the other way; inactive means flat fitted curve, though single readings scatter. Potencies beside an inconclusive call are fits to weak or partial responses and may not hold up.

Assay: qHTS screen for small molecules that inhibit ELG1-dependent DNA repair in human embryonic kidney (HEK293T) cells expressing luciferase-tagged ELG1; further: nearly all actives have a fitted effect of over 55% in size
Details: HEK293T ELG1-luciferase reporter, luminescence, 16 h, DNA damage induced by 5-fluorouridine; series mostly up to 46.1 µM
Summary of the method: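 HEK293T cells expressing luciferase-tagged ELG1 (2,000/well) received 5-Fluorouridine plus compound or DMSO for 16 hr at 37 °C. Luciferase was read by ONE-Glo luminescence after 30 min at room temperature.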
Potency means the concentration at half of the fitted maximal effect.

SMILES	Potency
O=C(Nc1ccc(NC(=O)c2ccco2)cc1)c1cnccn1	inconclusive: 20.6 µM [activator, partial curve]
Cc1ccc(-n2nc3c(=O)n(CCCC(=O)NCc4ccc(Cl)cc4)nc(C)c3c2C)cc1	inconclusive: 18.3 µM [inhibitor, single point]
CC(C)C(=O)Nc1cc2c3c(c1)CCN3C(=O)CC2	inconclusive: 16.4 µM [activator, single point]
COc1ccc2nc(NC(=O)CSc3nc4cccnc4n3C)sc2c1	inconclusive: 20.6 µM [inhibitor, single point]
O=C(CCCN1C(=O)/C(=C/c2ccco2)SC1=S)Nc1ccccc1C(=O)O	inactive
Cc1ccc(C(=O)C(C)OC(=O)c2ccccc2[N+](=O)[O-])cc1 (stereo not drawn)	inconclusive: 8.2 µM [activator, partial curve]
COCCN(CC(=O)Nc1cccc(C)c1C)C(=O)Cc1cccs1	inactive
O=S(=O)([N-]c1nc2ccccc2nc1-n1cc[n+](Cc2ccccc2)c1)c1ccc(Cl)cc1	inconclusive: 29.1 µM [activator, single point]
Cc1ccsc1C(=O)N1CCCC(CCC(=O)NCc2ccc(F)c(F)c2)C1 (stereo not drawn)	inconclusive: 8.2 µM [inhibitor, partial curve, poor fit]
Cc1ccc(S(=O)(=O)CCC(=O)Nc2nc(-c3ccccn3)cs2)cc1	inconclusive: 18.3 µM [inhibitor, single point]
COCCNC(=S)N1CCN(c2nc3ccccc3s2)CC1	inactive
Nc1ccc(SCCN2C(=O)c3ccccc3C2=O)cc1	inconclusive: 20.6 µM [activator, partial curve, poor fit]
Cc1ccc(-n2c(C)cc(C=C(C#N)C#N)c2C)cc1	inconclusive: 29.1 µM [activator, single point]
O=C(NCCc1ccc(C(F)(F)F)cc1)C1CC(=O)N(Cc2ccccc2)C1 (stereo not drawn)	inactive
S=C(Nc1ccc2nsnc2c1)NC1CCCCC1	inconclusive: 6.51 µM [activator, partial curve]
COc1cc(/C=C(\C#N)c2nnc(N3CCOCC3)n2-c2ccccc2)ccc1O	inactive
COC(=O)Cn1ncc2c3ccccc3n(C)c2c1=O	inconclusive: 7.31 µM [activator, partial curve]
O=C(CCN1C(=O)/C(=C/C=C/c2ccccc2)SC1=S)Nc1cccnc1	inconclusive: 14.6 µM [activator, partial curve]
Cc1cc(/C=C2/NC(=O)NC2=O)c(C)n1-c1ccc(N2CCOCC2)cc1	inconclusive: 14.6 µM [inhibitor, partial curve]
Cc1ccsc1C(=O)Nc1nnc(-c2ccco2)o1	inactive
CCCCSCCCNC(=O)CS(=O)Cc1nc(-c2cccc(C)c2)oc1C (stereo not drawn)	active: 16.4 µM
CN(C)C(=O)CCc1ccc2c3c([nH]c2c1)[C@]1(CCC2CCCC2)[C@@H](C(=O)N2CCOCC2)C[C@H](CC(=O)NCC24CC5CC(CC(C5)C2)C4)C(=O)N1CC3	inconclusive: 20.6 µM [inhibitor, single point]
O=C(COC(=O)c1ccccn1)Nc1ccc2c(c1)OCCO2	inconclusive: 18.3 µM [activator, single point]

SMILES	Potency
Cc1cn(CCC(=O)Nc2ccccc2N2CCOCC2)c2ccccc12	inconclusive: 18.3 µM [activator, partial curve]
CC(C)(C)c1ccc(-c2cnco2)cc1	inactive
Cn1cc(Br)c(C(=O)N/N=C/c2cccc(OC3CSC3)c2)n1	inconclusive: 8.2 µM [activator, partial curve]
O=C(Nc1ccc(Cl)cc1)c1ccc2nsnc2c1	inconclusive: 4.61 µM [activator, partial curve]
COc1ccc(/C=C/C(=O)Nc2ccccc2C(F)(F)F)cc1	inconclusive: 7.31 µM [activator, partial curve]
COc1cc2nc(Nc3cccc(F)c3)nc(N)c2cc1OC	inconclusive: 29.1 µM [inhibitor, single point]
CCOC(=O)CSc1nc2cc3c(cc2cc1C)OCO3	inactive
COc1ccc(/C=N/NC(=O)c2cccc(Br)c2)cc1Cn1cc(Cl)cn1	inconclusive: 10 µM [inhibitor, partial curve, poor fit]
CCOC(=O)C1CCCN(C(=O)c2ccc(Cl)c(S(=O)(=O)N3CCCCC3)c2)C1 (stereo not drawn)	inconclusive: 11.6 µM [inhibitor, partial curve]
COc1ccc(Cl)cc1Nc1nc(-c2cccnc2)cs1	inconclusive: 7.3 µM [inhibitor, partial curve, poor fit]
CC1=C(C#N)C(c2ccccc2)C2=C(N1)c1ccccc1C2=O (stereo not drawn)	inactive
c1ccc(SCc2nc(-c3cccnc3)no2)cc1	inconclusive: 3.98 µM [activator, full curve]
Cn1c(=O)c2c(nc(N/N=C/c3cccs3)n2Cc2ccccc2)n(C)c1=O	active: 6.51 µM
CCN(CCn1cccn1)C(=O)c1cc(COc2ccccc2SC)on1	inconclusive: 10.3 µM [activator, partial curve]
O=C(Nc1ccc(Cl)cc1)NC1CCCC1Cc1ccco1 (stereo not drawn)	inconclusive: 18.4 µM [inhibitor, single point]
CC(=O)Nc1ccc(N/C(C)=C/C(=O)c2cccnc2)cc1	inconclusive: 0.651 µM [inhibitor, full curve, poor fit]
Cn1cncc1C#Cc1ccc2c(=O)c3ccccc3oc2c1	inconclusive: 2.31 µM [activator, full curve]
CCOc1cc(NC(=O)c2ccco2)c(OCC)cc1NC(=O)Cc1ccc(OC)c(OC)c1	inactive
CCOC(=O)N/N=C/c1c(C)nn(-c2ccccc2Cl)c1Cl	inconclusive: 8.2 µM [activator, partial curve]
CCc1nnc(NC(=O)c2cccc(NC(=O)C(C)C)c2)s1	inconclusive: 11.6 µM [activator, partial curve]
NC(=O)c1ccc(NC(=O)COC(=O)c2c[nH]c3ccccc23)cc1	inconclusive: 16.4 µM [activator, partial curve, poor fit]
CN1C(=O)/C(=C/c2ccc(OCc3ccc(F)cc3)cc2)NC1=S	inactive
Cc1ccc(C(=O)Nc2cc3[nH]c(=O)oc3cc2C)cc1	inactive

By substructure: those above with a CF3 group.
SMILES	Potency
O=C(NCCc1ccc(C(F)(F)F)cc1)C1CC(=O)N(Cc2ccccc2)C1 (stereo not drawn)	inactive
COc1ccc(/C=C/C(=O)Nc2ccccc2C(F)(F)F)cc1	inconclusive: 7.31 µM [activator, partial curve]

Later entries.

SMILES	Potency
COc1ccc(N2CCOCC2)c(NC(=O)c2cccc3ccccc23)c1	inconclusive: 11.6 µM [inhibitor, partial curve, poor fit]
O=C1Nc2ccccc2/C1=N/c1sc2c(c1C(=O)NCCc1ccccc1)CCCC2	inconclusive: 29.1 µM [activator, single point]
COc1cc2ncnc(NCCc3ccccc3)c2cc1OC	inconclusive: 20.6 µM [inhibitor, single point]
COc1cc(/C=C/C(=O)N2C(=O)c3cccc(N)c3C2=O)cc(OC)c1OC	inconclusive: 29.1 µM [inhibitor, single point]
CCN(CC)S(=O)(=O)c1cc(C(=O)Nc2ccc(Cl)cn2)ccc1C	inconclusive: 2.91 µM [activator, partial curve]
CC(C)CNc1cc(Cl)c(S(=O)(=O)NCC(C)C)cc1C(=O)O	inactive
CCCc1nc2ccc(NC(=O)c3cccs3)cc2c(=O)n1Cc1ccccc1Cl	inconclusive: 23.1 µM [inhibitor, single point]
COc1cccc(-c2cc(C(=O)NCCCn3ccnc3)no2)c1	inconclusive: 20.6 µM [activator, single point]
Cc1nn(CCC(=O)NNC(=S)Nc2ccc([N+](=O)[O-])cc2)c(C)c1[N+](=O)[O-]	inactive
Cc1cccc(C(=O)Nc2cccc3c2CCCC3)c1	inactive
CC(C)c1ccc(NC2CCCN(C(=O)c3cccc4nccnc34)C2)cc1 (stereo not drawn)	inactive
COc1cccc(C(=O)Cn2c(=O)n(CCC(=O)NCC3CCCO3)c(=O)c3cc(OC)c(OC)cc32)c1 (stereo not drawn)	inconclusive: 18.3 µM [inhibitor, single point]
CCOC(=O)Cn1nc(-c2ccc(C)cc2)ccc1=O	inconclusive: 29.1 µM [activator, single point]
COc1ccccc1C(=O)N/C(=C\c1cn(S(=O)(=O)N(C)C)c2ccccc12)C(=O)N1CCCC1	inconclusive: 16.4 µM [inhibitor, partial curve, poor fit]
CCOC(=O)c1cc2ccc(OC)cc2oc1=O	inconclusive: 14.6 µM [activator, partial curve]
O=C(Nc1cccnc1Cl)c1noc2c1CCc1ccccc1-2	inconclusive: 7.3 µM [activator, partial curve]
Cc1c(/C=N\NC(=O)c2ccc([N+](=O)[O-])cc2)cnn1C	inactive
O=C(O)CSc1nnc(-c2cccnc2)n1Cc1ccccc1	inactive
O=c1[nH]c(=O)n(Cc2ccco2)c2c1C(C(F)(F)F)(C(F)(F)F)N=C(CCC1CCCCC1)N2	inconclusive: 35.5 µM [inhibitor, single point]
O=C(c1ccc2ccccc2c1)N1CCN(S(=O)(=O)/C=C/c2ccccc2)CC1	inconclusive: 16.4 µM [inhibitor, single point]
C[C@H](CO)N1C[C@H](C)[C@@H](CN(C)S(=O)(=O)c2cn(C)cn2)Oc2c(NS(=O)(=O)c3ccc(F)cc3)cccc2C1=O	inconclusive: 16.4 µM [activator, partial curve, poor fit]
O=C(Nc1cccc(F)c1)C1CCN(C(=O)c2ccc(Br)cc2)CC1	inactive
